Source: patent US7723528B2, “Sulfur transfer reagents for oligonucleotide synthesis” (AM Chemicals LLC, priority 2008, dated 2010)

Test system: solid support-bound internucleosidic phosphite triesters
Experiment: Sulfur transfer in solid phase synthesis of oligonucleotide phosphorothioates
Conditions: optimized conditions

CCCCN(C=Nc1nc(=S)ss1)CCCC [Compound 3, N′-(3-thioxo-3H-1,2,4-dithiazol-5-yl)-N,N-dibutylmethanimidamide]
Contact time required for complete sulfur transfer (0.02 M solution): 2 min | Contact time required for complete sulfur transfer (0.05 M solution): 1 min | Contact time required for complete sulfur transfer (0.1 M solution): 0.5 min
